Results: PubChem BioAssay AID1259354 (Paczesny and Yang Labs, IUPUI and University of Michigan, 2018)
In all, about 78,000 compounds went through this assay and about 1,800 (2.3%) were called active. This list was built around the results that the source calls inconclusive (neither active nor inactive); the mix of calls is not that of the screen. No stated cut-off is given here; in the data, active means inhibition above about 30%; inconclusive means mostly about 10% to 28%; inactive means weaker than that.

Sequences of proteins named here, by UniProt entry; tags and fusion partners are left off. A change or cut given only in a name is not applied to a line headed by its entry.
UniProt Q01638: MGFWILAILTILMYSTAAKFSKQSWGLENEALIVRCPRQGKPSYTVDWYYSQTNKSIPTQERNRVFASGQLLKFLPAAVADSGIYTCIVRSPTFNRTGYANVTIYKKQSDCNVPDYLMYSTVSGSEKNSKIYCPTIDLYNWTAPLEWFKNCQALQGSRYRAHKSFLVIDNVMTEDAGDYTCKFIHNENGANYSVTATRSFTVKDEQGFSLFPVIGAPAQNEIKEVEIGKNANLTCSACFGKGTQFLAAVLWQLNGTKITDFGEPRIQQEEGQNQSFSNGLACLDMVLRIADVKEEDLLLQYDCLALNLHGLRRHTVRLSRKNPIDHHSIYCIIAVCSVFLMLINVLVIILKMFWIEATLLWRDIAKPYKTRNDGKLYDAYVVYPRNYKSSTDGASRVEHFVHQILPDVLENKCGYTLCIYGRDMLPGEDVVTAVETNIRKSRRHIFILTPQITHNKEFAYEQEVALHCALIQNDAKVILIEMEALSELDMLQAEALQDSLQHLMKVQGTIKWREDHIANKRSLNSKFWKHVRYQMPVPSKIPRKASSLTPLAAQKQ

Molecular target: Interleukin-1 receptor-like 1 (Homo sapiens) (UniProt Q01638)
Test: blocks human ST2 binding to IL-33, primary screen, biochemical, AlphaLISA (AID 1259354)
Conditions: AlphaLISA ST2-Fc/biotin-IL-33 interaction, 1 h; at 17 µM, hits give high values

Structure (SMILES)	inhibition
CC(C)NC(=O)C[C@@H]1O[C@H](CNC(=O)c2ccc(N(C)C)cc2)[C@@H](O)[C@H]1O	inactive
NC(=NCCC[C@H](N)C(=O)O)NO	inconclusive: 12%
CCN(CC)c1cc2nonc2c2nonc12	inconclusive: 13%
CNc1nc2c(C)cccn2c(=O)c1C=NCc1ccccc1	inconclusive: 26%
CCOc1ccc(C=Nc2cc(Cl)ccc2O)c(O)c1	inconclusive: 17%
CC1(C)CC(=O)C2=C(C1)OC(N)=C(C#N)C2c1ccc(F)c(Br)c1 (stereo not drawn)	inconclusive: 16%
CCCSc1nc2c(c(=O)n1-c1ccccc1OC)SCC2	inactive
CCC1=C(c2ccc(OC)cc2)S(=O)(=O)N(CC(=O)NC(C)(C)C)C1=O	inconclusive: 13%
CCOc1ccc(Nc2nc(-c3ccncc3)cs2)cc1	inactive
O=c1cc(CO)occ1O	inconclusive: 22%
Cc1ccc(C(c2sc3nc(C)nn3c2O)N2CCC(C(N)=O)CC2)cc1 (stereo not drawn)	inactive
Cc1nn(-c2cccc(Cl)c2)c2c1C(c1cccc([N+](=O)[O-])c1)C(C#N)=C(N)O2 (stereo not drawn)	active: 45%
O=C(c1cccc2cc[nH]c12)N1C[C@@H]2[C@H](C1)[C@H]1CC[C@@H]2O1	inactive
Cc1cccc(C)c1NC(=O)CN1CCCCC1	inconclusive: 13%
C=CCOc1ccccc1/C=C1/C(=O)NN(c2ccc(C)c(Cl)c2)C1=O	inconclusive: 17%
NC(=O)c1c(NC(NC(=O)c2cccs2)C(=O)c2ccccc2)sc2c1CCCC2 (stereo not drawn)	inconclusive: 23%
CC1=CC(C)(C)N(C(=O)CN2C(=O)C3CCCCC3C2=O)c2ccc(C)cc21 (stereo not drawn)	inactive
CC(c1ccc(-c2ccc3nc[nH]c3c2)cc1)N1CCOCC1 (stereo not drawn)	inconclusive: 11%
CCn1ccnc1CN1CCCC(CNC(=O)C2(N)CCCC2)C1 (stereo not drawn)	inconclusive: 14%
O=C(/C=C/c1ccco1)Nc1ccc(Cl)c(-c2nc3cc(Cl)ccc3o2)c1	inconclusive: 10%
O=C(O)c1cccc(CC2CCN(C(=O)CCc3cccnc3)CC2)c1	inactive
Cc1cccn2c(CC(=O)N3CCCC4(CNC(=O)O4)C3)cnc12 (stereo not drawn)	inactive
COc1cc(/C=c2\sc3ncnn3c2=O)ccc1OCCC(C)C	inactive
CC(=O)Nc1ccc(Nc2nnc(-c3ccc(O)cc3)c3ccccc23)cc1	inconclusive: 13%
CCN(CC)CCOc1ccccc1OCc1ccccc1	inconclusive: 22%
COCCCNC(=O)c1ccc(CS(=O)(=O)c2ccc(OC)cc2)o1	inconclusive: 12%
c1ccc(CCc2nc(CCn3nnc4ccccc43)n[nH]2)cc1	inconclusive: 17%
COc1ccc(S(=O)(=O)N2CCSC2c2ccc([N+](=O)[O-])cc2)cc1 (stereo not drawn)	inconclusive: 10%

Among those listed so far, three contain two or more sulfur atoms:
Structure (SMILES)	inhibition
CCCSc1nc2c(c(=O)n1-c1ccccc1OC)SCC2	inactive
NC(=O)c1c(NC(NC(=O)c2cccs2)C(=O)c2ccccc2)sc2c1CCCC2 (stereo not drawn)	inconclusive: 23%
COc1ccc(S(=O)(=O)N2CCSC2c2ccc([N+](=O)[O-])cc2)cc1 (stereo not drawn)	inconclusive: 10%
